Publication PMC10951978 (RSC Advances, 2024)

Test system: KU812
Experiment: CCK8 antiproliferative assay, KU812
Type: cell-based
Conditions: Homo sapiens, KU812, 48 h, read-out: Antiproliferative activity (IC50/μM) KU812

In the case of `O=C(CCCCCCC(=O)Nc1ccccc1)NO` [SAHA, vorinostat, reference compound], the IC50 is reported as 1 ± 0.11 µM.
